Results as given in patent US20170276611A1, “CHALCOGENOPYRYLIUM DYES, COMPOSITIONS COMPRISING SAME, COMPOSITE NANOPARTICLES COMPRISING SAME, AND METHODS OF MAKING AND USING THE SAME” (The Research Foundation for The State University of New York, priority 2014, published 2017).

How the values were obtained:
[1] = SERRS intensity of silica-encapsulated gold SERRS-nanoprobes, 785-nm laser; settings: for SERRS-signal intensity of the 1600 cm^−1 peak: nanoprobes made with 1.0 μM dye, 785 nm, 50 μW/cm^2, 1.0-s acquisition
[2] = SERS of dye-HGN (hollow gold nanoshell) assemblies with 1064-nm excitation; settings: dye-HGN assemblies with KCl, 5 s exposure, peak at 1590 cm^−1
[3] = SERS of dye-HGN (hollow gold nanoshell) assemblies with 1280-nm excitation; settings: HGNs and KCl, 7 s exposure, peak at 1590 cm^−1

SMILES: C(=Cc1cc(-c2cccs2)[s+]c(-c2cccs2)c1)C=C1C=C(c2cccs2)SC(c2cccs2)=C1.F[P-](F)(F)(F)(F)F [Dye 3, 4-(3-(2,6-dithiophen-2-yl-4H-thiopyran-4-ylidene)prop-1-enyl)-(2,6-dithiophen-2-yl)thiopyrylium hexafluorophosphate]
- SERRS signal relative to IR792 nanoprobes ([1]; nanoprobes synthesized with equimolar (1.0 μM) dye): 5-6 fold

SMILES: c1cc(N=Nc2ccncc2)ccn1 [AZPY, 4,4′-azopyridine, reference compound]
- Limit of detection (LOD) [2]: 170 pM

SMILES: C(=Cc1cc(-c2ccccc2)[s+]c(-c2ccccc2)c1)C=C1C=C(c2cccs2)SC(c2cccs2)=C1.F[P-](F)(F)(F)(F)F [Dye 2b, 4-(3-(2,6-dithiophen-2-yl-4H-thiopyran-4-ylidene)prop-1-enyl)-2,6-diphenylthiopyrylium hexafluorophosphate]
- SERRS-signal intensity of the 1600 cm^−1 peak [1]: significantly more intense than 1a/1b

SMILES: C(=Cc1cc(-c2ccc[se]2)[s+]c(-c2ccc[se]2)c1)C=C1C=C(c2ccc[se]2)SC(c2ccc[se]2)=C1.F[P-](F)(F)(F)(F)F [Dye 14, 4-(3-(2,6-di(selenophen-2-yl)-4H-thiopyran-4-ylidene)prop-1-en-1-yl)-2,6-di(selenophen-2-yl)thiopyrylium hexafluorophosphate]
- Limit of detection (LOD) [3]: 1.47 pM

SMILES: C(=Cc1cc(-c2ccccc2)[se+]c(-c2ccccc2)c1)C=C1C=C(c2cccs2)SC(c2cccs2)=C1.F[P-](F)(F)(F)(F)F [Dye 2a, 4-(3-(2,6-dithiophen-2-yl-4H-thiopyran-4-ylidene)prop-1-enyl)-2,6-diphenylselenopyrylium hexafluorophosphate]
- SERRS-signal intensity of the 1600 cm^−1 peak [1]: significantly more intense than 1a/1b

SMILES: C(=Cc1ccncc1)c1ccncc1 [BPE, bis(4-pyridyl)ethylene, reference compound]
- Limit of detection (LOD) [2]: 52 pM

SMILES: C(=Cc1cc(-c2cccs2)[s+]c(-c2cccs2)c1)C=C1C=C(c2cccs2)SC(c2cccs2)=C1.F[P-](F)(F)(F)(F)F [Dye 13, 4-(3-(2,6-dithiophen-2-yl-4H-thiopyran-4-ylidene)prop-1-enyl)-(2,6-dithiophen-2-yl)thiopyrylium hexafluorophosphate]
- Limit of detection (LOD) [3]: 11.5 pM
